Measurements from paper doi:10.1101/2024.06.18.599493.
No constants are given. Whether binding was seen depends on the method and setting. Binding seen in cells or lysates may run through a third protein. Some entries that bind do so weakly or less than the wild type.

Amino acid sequences for entries named in this document (tags omitted).
UniProt P09874: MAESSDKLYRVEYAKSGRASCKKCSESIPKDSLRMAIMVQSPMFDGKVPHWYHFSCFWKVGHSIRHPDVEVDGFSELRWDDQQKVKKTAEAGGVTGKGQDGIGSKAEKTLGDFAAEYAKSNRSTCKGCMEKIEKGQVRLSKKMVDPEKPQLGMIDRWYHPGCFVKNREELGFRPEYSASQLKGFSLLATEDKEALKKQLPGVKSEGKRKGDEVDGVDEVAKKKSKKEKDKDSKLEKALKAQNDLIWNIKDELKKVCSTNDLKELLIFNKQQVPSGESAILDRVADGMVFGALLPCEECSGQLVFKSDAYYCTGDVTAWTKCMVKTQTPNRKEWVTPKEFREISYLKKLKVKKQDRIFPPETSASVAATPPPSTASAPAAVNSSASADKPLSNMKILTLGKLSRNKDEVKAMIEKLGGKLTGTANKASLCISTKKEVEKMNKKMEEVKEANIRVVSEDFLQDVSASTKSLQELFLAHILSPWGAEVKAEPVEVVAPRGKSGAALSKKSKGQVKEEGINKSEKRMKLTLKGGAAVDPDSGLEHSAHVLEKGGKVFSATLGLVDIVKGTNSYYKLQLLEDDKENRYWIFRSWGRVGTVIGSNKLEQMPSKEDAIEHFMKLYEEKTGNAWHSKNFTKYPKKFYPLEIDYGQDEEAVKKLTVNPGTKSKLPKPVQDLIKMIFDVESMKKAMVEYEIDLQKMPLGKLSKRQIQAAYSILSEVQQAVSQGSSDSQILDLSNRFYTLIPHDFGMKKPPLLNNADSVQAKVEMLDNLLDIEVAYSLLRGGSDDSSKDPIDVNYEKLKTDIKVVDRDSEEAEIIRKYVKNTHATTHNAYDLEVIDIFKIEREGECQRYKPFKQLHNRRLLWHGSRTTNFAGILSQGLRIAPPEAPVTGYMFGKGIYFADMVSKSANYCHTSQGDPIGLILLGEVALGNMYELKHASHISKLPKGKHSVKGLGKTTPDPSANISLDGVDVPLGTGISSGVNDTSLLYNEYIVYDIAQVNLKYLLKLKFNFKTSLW
UniProt P67809: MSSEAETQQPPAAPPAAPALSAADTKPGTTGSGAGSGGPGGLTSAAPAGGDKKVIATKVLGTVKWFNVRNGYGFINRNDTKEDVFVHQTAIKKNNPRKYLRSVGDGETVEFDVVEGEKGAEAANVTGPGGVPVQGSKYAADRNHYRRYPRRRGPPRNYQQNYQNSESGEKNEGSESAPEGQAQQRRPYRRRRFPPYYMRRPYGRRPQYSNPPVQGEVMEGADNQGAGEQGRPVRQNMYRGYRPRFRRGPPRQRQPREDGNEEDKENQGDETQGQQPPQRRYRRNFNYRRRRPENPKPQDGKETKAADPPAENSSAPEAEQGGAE

Assays:
[1] = target: YFP-tagged PARP1 (UniProt P09874); assay: co-IP
[2] = target: PARP1 (human (endogenous in HEK293T or HeLa)) (UniProt P09874); assay: proximity ligation

binding [1]: binds
binding [2]: binds
Substance: Y-Box Binding Protein 1 (YBX1) (from UniProt P67809 1-324)
